In PubChem BioAssay AID248 (DTP/NCI, 2004) one finds T/C and survivor count data, which are given here for 31 molecules.

The test deals with L1210 leukemia ip in BDF1 mice, survival T/C. As to the kind of experiment: NCI In Vivo Anticancer Drug Screen. Data for tumor model L1210 Leukemia (intraperitoneal) in B6D2F1 (BDF1) mice. The settings on record: T/C endpoint: mean survival time, higher T/C = longer survival.
The mark [1] stands for this setting: dose: 100.0 mg/kg/injection, schedule: Q01DX009 (ip), vehicle: saline.
Setting [2] is: dose: 200.0 mg/kg/injection, schedule: Q01DX009 (ip), vehicle: saline.
[3] abbreviates: dose: 400.0 mg/kg/injection, schedule: Q01DX009 (ip), vehicle: saline.
Setting [4] is: dose: 100.0 mg/kg/injection, schedule: Q01DX001 (ip), vehicle: saline.
[5] abbreviates: dose: 400.0 mg/kg/injection, schedule: Q04DX003 (ip), vehicle: saline with Tween-80.
[6] abbreviates: dose: 300.0 mg/kg/injection, schedule: Q01DX001 (ip), vehicle: other.
Where [7] appears, read: dose: 300.0 mg/kg/injection, schedule: Q01DX001 (ip), vehicle: saline.
Setting [8] is: dose: 200.0 mg/kg/injection, schedule: Q01DX001 (ip), vehicle: saline.
Where [9] appears, read: dose: 400.0 mg/kg/injection, schedule: Q01DX001 (ip), vehicle: saline.
Setting [10] is: dose: 150.0 mg/kg/injection, schedule: Q01DX001 (ip), vehicle: saline.
The mark [11] stands for this setting: dose: 50.0 mg/kg/injection, schedule: Q01DX009 (ip), vehicle: saline.
Setting [12] is: dose: 200.0 mg/kg/injection, schedule: Q04DX003 (ip), vehicle: saline.
The mark [13] stands for this setting: dose: 400.0 mg/kg/injection, schedule: Q04DX003 (ip), vehicle: saline.

The list shows only some results of the screen, not a fair sample: it is rich in T/C values a quarter to a half above the control, in often repeated tests (any T/C) and in doses without a T/C. Further doses and runs are listed elsewhere. T/C gives the treated animals as a percentage of the vehicle group. Some entries give survivors of the animals treated and no T/C: the source files T/C as zero there, which appears to mark a toxic dose or a test without result, not a measured value. Some doses without a T/C left all or most animals alive at the check, yet need not have been tolerated: the source hardly ever lists a survival T/C far under the control, and the zero likely stands for such cases as well. Counts of survivors are from the toxicity check (mostly the fifth day) where no day follows; animals may have died later. Schedule codes are those of the source, read here as Q, the interval in days (D) or hours (H), X, the number of doses. Some entries were tested several times; the results are listed from low to high. Some schedule codes hold Z or #, which are not explained here. For survival time, this PubChem deposit counts one and a half times the control or more as active, and values a quarter to a half above the control carry no call in these data; other NCI protocols may use other cut-offs. Some T/C values are followed by the survivors on the day toxicity was checked, most often the fifth; without a count, all were alive then.

For the molecule `COc1ccc(NC(=O)Nc2ccc(C3=NCCCN3)cc2)cc1NC(=O)Nc1ccc(C2=NCCCN2)cc1`, for the setting “dose: 125.0 mg/kg/injection, schedule: Q01DX Z (ip), vehicle: carboxymethylcellulose (CMC)”, the T/C is 142 % of control. The survivor count (dose: 500.0 mg/kg/injection, schedule: Q01DX Z (ip), vehicle: carboxymethylcellulose (CMC)) is 0 of 6.

`CN(C)Cc1ncccc1OC(=O)N(c1ccccc1)c1ccccc1`: the survivor count is given as 0 of 6 under setting [1], 0 of 6 under setting [2] and 0 of 6 under setting [3].

For `Oc1ccc(Br)cc1/C=N/NC(=S)Nc1cccc2cccnc12`, the survivor count under setting [4] is 4 of 4.

`O=C(O)c1ccc2c([N+](=O)[O-])cccc2n1`: the survivor count (dose: 400.0 mg/kg/injection, schedule: Q01DX009 (ip), vehicle: Klucel (hydroxypropylcellulose) (HPC)) is reported as 6 of 6.

Regarding `CCCCn1cccc1`, the survivor count under setting [5] was 0 of 6.

For the molecule `N#CC(OC(=O)c1ccccc1)c1ccccc1` (stereo not drawn), the survivor count under setting [6] is 2 of 6.

Take `c1cc(-c2ccc(C3=NCCN3)cc2)ccc1C1=NCCN1`: for the setting “dose: 120.0 mg/kg/injection, schedule: Q01DX Z (ip), vehicle: saline”, the survivor count is 0 of 6.

`O=C1NC(=O)C(c2cccs2)(c2cccs2)N1`: the survivor count (dose: 400.0 mg/kg/injection, schedule: Q04DX003 (ip), vehicle: water) is recorded as 1 of 6.

`c1ccc(N=Nc2ccncc2)cc1`: the survivor count is given as 0 of 6 (dose: 100.0 mg/kg/injection, schedule: Q04DX003 (ip), vehicle: saline with Tween-80); 0 of 6 (dose: 200.0 mg/kg/injection, schedule: Q04DX003 (ip), vehicle: saline with Tween-80); 0 of 6 under setting [5].

As for `CCN(CC)CCCNC(c1ccc(OC)c(OC)c1)C(Cl)(Cl)Cl` (stereo not drawn), under setting [7], the survivor count is listed as 1 of 6.

With `O=c1/c(=C\c2ccc(Cl)c(Cl)c2)sc2n1CCN=2`, the survivor count under setting [8] is listed as 6 of 6.

For `Cc1cc(C)[nH]c(=O)n1`, the survivor count under setting [3] is recorded as 4 of 6.

As to `C[N+]1(C)CCOC(O)(c2ccccc2)C1` (stereo not drawn), the survivor count runs as follows: (dose: 50.0 mg/kg/injection, schedule: Q01DX001 (ip), vehicle: saline) 0 of 4; under setting [8], 0 of 4; under setting [9], 0 of 4.

For `CCCCCc1cc[n+](CC(O)c2ccccc2)cc1` (stereo not drawn), the survivor count by setting is: under setting [8], 0 of 4; under setting [9], 0 of 4.

In the case of `CC12CCC(C1)C(C)(C)C2[N+]#N` (stereo not drawn), the survivor count under setting [10] is 0 of 6 and the survivor count under setting [7] is 0 of 6.

On to `NC1CC2CCC1C2` (stereo not drawn), for which the survivor count (dose: 200.0 mg/kg/injection, schedule: Q04DX002 (ip), vehicle: saline) is 0 of 3.

Turning to `CC12CCC(=O)C=C1CCC1C2CCC2(C)C(C(=O)COC(=O)Cc3ccc(N(CCCl)CCCl)cc3)CCC12` (stereo not drawn), the T/C (dose: 100.0 mg/kg/injection, schedule: Q01DX009 (ip), vehicle: Klucel (hydroxypropylcellulose) (HPC)) is 139 % of control and the T/C (dose: 200.0 mg/kg/injection, schedule: Q01DX009 (ip), vehicle: Klucel (hydroxypropylcellulose) (HPC)) was 146 % of control.

In the case of `C[N+](C)(C)CCOC(=O)CCC(=O)OCC[N+](C)(C)C`, the survivor count was 0 of 3 (dose: 6.25 mg/kg/injection, schedule: Q01DX009 (ip), vehicle: saline); 0 of 3 (dose: 12.5 mg/kg/injection, schedule: Q01DX009 (ip), vehicle: saline); 0 of 3 (dose: 25.0 mg/kg/injection, schedule: Q01DX009 (ip), vehicle: saline); 0 of 3 under setting [11]; 0 of 3 and 0 of 6 under setting [1]; 0 of 6 under setting [2]. Besides, the survivor count under setting [3] is listed as 0 of 6.

`Cc1nc(C[N+](C)(C)C)c2cnccn12`: the survivor count reads like this: under setting [12], 5 of 6; under setting [13], 0 of 6.

As for `CS(=O)(=O)Nc1ccc(Nc2c3ccccc3nc3cc(Cl)ccc23)cc1`, the T/C is 142 % of control (dose: 40.0 mg/kg/injection, schedule: Q01DX009 (sc), vehicle: saline) and 126 % of control (dose: 80.0 mg/kg/injection, schedule: Q01DX009 (sc), vehicle: saline).

For the molecule `CCCOCC(O)C[As](=O)(O)c1cccc(Cl)c1` (stereo not drawn), the survivor count is on record as 4 of 6 (dose: 25.0 mg/kg/injection, schedule: Q01DX001 (ip), vehicle: saline with Tween-80); 0 of 6 (dose: 50.0 mg/kg/injection, schedule: Q01DX001 (ip), vehicle: saline with Tween-80); 0 of 6 (dose: 100.0 mg/kg/injection, schedule: Q01DX001 (ip), vehicle: saline with Tween-80); 0 of 6 (dose: 200.0 mg/kg/injection, schedule: Q01DX001 (ip), vehicle: saline with Tween-80); 0 of 6 (dose: 400.0 mg/kg/injection, schedule: Q01DX001 (ip), vehicle: saline with Tween-80).

Turning to `CC12CC3CC(C)(C1)CC(O)(C3)C2`, where the note is “dose: 400.0 mg/kg/injection, schedule: Q01DX001 (ip), vehicle: carboxymethylcellulose (CMC)”, the survivor count was 2 of 4.

With `CCOC(=O)CCCN1CCC=C(C#N)C1`, the survivor count under setting [10] is 3 of 6.

For `CC1(C)CCC(NC(=O)NCCF)CC1`, the survivor count (dose: 75.0 mg/kg/injection, schedule: Q01DX001 (ip), vehicle: other) was 0 of 6; the survivor count (dose: 150.0 mg/kg/injection, schedule: Q01DX001 (ip), vehicle: other) is reported as 0 of 6; the survivor count under setting [6] was 0 of 6.

`Cc1ccc(C#N)s1`: the T/C by setting is: (dose: 25.0 mg/kg/injection, schedule: Q04DX003 (ip), vehicle: saline) 127 % of control; (dose: 35.0 mg/kg/injection, schedule: Q04DX003 (ip), vehicle: saline) 125 % of control [5 of 6 alive]. Further, the survivor count runs as follows: (dose: 50.0 mg/kg/injection, schedule: Q01DX009 (ip), vehicle: other) 1 of 6; (dose: 50.0 mg/kg/injection, schedule: Q04DX003 (ip), vehicle: saline) 0 of 6; (dose: 100.0 mg/kg/injection, schedule: Q04DX003 (ip), vehicle: saline) 0 of 6 and 3 of 6; under setting [12], 2 of 6; under setting [13], 0 of 6.

Consider `Cln1nnc2ccccc21`, for which the survivor count (dose: 400.0 mg/kg/injection, schedule: Q04DX002 (ip), vehicle: other) is 1 of 3.

Turning to `N#CC(O)C(Br)(Br)Br` (stereo not drawn), the survivor count is, setting by setting: (dose: 40.0 mg/kg/injection, schedule: Q01DX001 (ip), vehicle: saline) 2 of 4; (dose: 80.0 mg/kg/injection, schedule: Q01DX001 (ip), vehicle: saline) 0 of 4; under setting [4], 0 of 4; under setting [8], 0 of 4; under setting [9], 0 of 4.

On to `Nc1c(I)cc(C(=O)O)c(O)c1I`, for which the survivor count under setting [5] is 1 of 6.

On to `S=C([SH2+])[SH2+].S=C([SH2+])[SH2+].[Pt+2].c1ccc(C[P+](c2ccccc2)(c2ccccc2)c2ccccc2)cc1`, for which the survivor count reads like this: under setting [11], 0 of 6; under setting [4], 1 of 6; under setting [8], 0 of 6; under setting [9], 0 of 6.

For the molecule `F[Si](F)(c1ccccc1)c1ccccc1`, the survivor count under setting [7] is 4 of 6.

For `Oc1c(Br)cc(Br)cc1C=Nc1ccc(I)cc1.Oc1c(Br)cc(Br)cc1C=Nc1ccc(I)cc1.[Co]`, the survivor count under setting [5] is reported as 3 of 3.
